Values quoted from earlier work in publication PMC2843925 (ACS chemical neuroscience, 2010).

Molecular target: DAT
Conditions: known DAT ligands; ref Ukairo et al. ([12]); cited from earlier work

For `CN1[C@@H]2CC[C@@H]1CC(OC(c1ccccc1)c1ccccc1)C2` (stereo partly drawn) [Benztropine, (1R,5R)-3-benzhydryloxy-8-methyl-8-azabicyclo[3.2.1]octane], the “E pKi (experimental pKi)” value is given as 6.90.
